Among all 78,000 compounds or so, about 1,800 (2.3%) were called active. The inconclusive results got no clear call from the source; some entries with a clear call stand among them for comparison. Cut-off read from the data, not from the text of the source: active = inhibition above about 30%; inconclusive = mostly about 10% to 28%; inactive = weaker than that.
molecular target: Interleukin-1 receptor-like 1 (Homo sapiens) (UniProt Q01638); experiment: blocks human ST2 binding to IL-33, primary screen, biochemical, AlphaLISA (AID 1259354); conditions: AlphaLISA ST2-Fc/biotin-IL-33 interaction, 1 h; at 17 µM, active compounds read high

Protein sequences, listed by entry. Tags and fused reporters are not part of them. Lines headed by an entry give the natural chain unless they say otherwise; changes in a name come on top.
UniProt Q01638: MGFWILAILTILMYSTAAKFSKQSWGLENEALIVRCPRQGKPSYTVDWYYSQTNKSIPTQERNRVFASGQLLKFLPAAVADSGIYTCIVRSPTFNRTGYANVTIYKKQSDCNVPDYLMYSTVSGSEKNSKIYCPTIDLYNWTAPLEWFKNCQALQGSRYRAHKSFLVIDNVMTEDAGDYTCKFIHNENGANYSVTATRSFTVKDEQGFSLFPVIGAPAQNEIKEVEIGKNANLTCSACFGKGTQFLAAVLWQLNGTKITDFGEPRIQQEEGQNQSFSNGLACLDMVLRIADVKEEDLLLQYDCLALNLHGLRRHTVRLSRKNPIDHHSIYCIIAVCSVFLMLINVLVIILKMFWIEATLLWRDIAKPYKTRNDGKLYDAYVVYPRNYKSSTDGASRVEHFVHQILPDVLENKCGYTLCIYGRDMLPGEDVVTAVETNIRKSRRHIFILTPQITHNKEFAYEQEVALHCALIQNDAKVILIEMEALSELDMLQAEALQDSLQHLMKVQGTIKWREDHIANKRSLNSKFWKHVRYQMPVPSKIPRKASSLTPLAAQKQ

| SMILES | inhibition |
| --- | --- |
| CNC(=O)Cc1ccc(-c2c(Cl)cccc2OC)cc1 | inconclusive: 14% |
| O=C(C1CC1)N1CCc2cc(S(=O)(=O)N3CCN(c4ccccc4F)CC3)ccc21 | inconclusive: 18% |
| CC(C)c1nccn1CCCNC(=O)c1ccc(-c2ccc3cc[nH]c3c2)nc1 | inactive |
| COc1ccc(OC)c(S(=O)(=O)Nc2ccc(Br)cc2)c1 | inactive |
| Cc1cccc(OCC(=O)Nc2ccc(C)c(OCc3cc(=O)n4cccc(C)c4n3)c2)c1 | inactive |
| CCS(=O)(=O)N1CCCC(C(=O)NC2CC2)C1 (stereo unspecified) | inconclusive: 16% |
| OC[C@@H](Cc1ccccc1)n1cnnc1 | inactive |
| Cc1ccc(/C=C2/SC(N3CCC(C)CC3)=NC2=O)o1 | active: 30% |
| O=C(O)CCN1C(=O)c2ccc(NC(=O)c3cccs3)cc2C1=O | inconclusive: 21% |
| COc1ccc(-c2nc(N(C)C)nc(C)c2C)cn1 | inactive |
| COC(=O)c1ccc(NC(=O)CCN2CCn3nc(C)cc3C2)cc1 | inconclusive: 21% |
| O=C(Nc1cccc(F)c1)c1cccc(OCc2ccccc2)c1 | inactive |
| CCCn1c(Br)nc2c1c(=O)[nH]c(=O)n2C | inactive |
| Cc1nc2sc(C(c3ccccc3)N3CCCCC3)c(O)n2n1 (stereo unspecified) | inconclusive: 15% |
| Cc1cccnc1CNCC1(O)CCCN(Cc2cccc(F)c2F)C1=O (stereo unspecified) | inactive |
| CCOC(=O)C1(CCCc2ccccc2)CCN(C(=O)c2n[nH]c3ccccc23)CC1 | inconclusive: 20% |
| COc1cc2c(cc1CN1CCN(c3ncccc3C)CC1)OCO2 | inconclusive: 15% |
| COc1cc(Cl)cc2cc(C(=O)N3CC[C@@H](N)[C@@H](OC)C3)oc12 | inconclusive: 11% |
| CNCc1cn(C[C@H]2O[C@@H](CC(=O)N(C)Cc3ccccc3)[C@H](O)[C@@H]2O)nn1 | inactive |
| CN(Cc1cccc2ncccc12)CC1CCOC1 (stereo unspecified) | inconclusive: 14% |
| CCn1cc(CN2CCCC(Nc3ccc4c(c3)OCO4)C2)c2ccccc21 (stereo unspecified) | inconclusive: 18% |
| OC(OCC1Cc2ccccc2O1)C1Cc2ccccc2O1 (stereo unspecified) | inconclusive: 14% |
| C=CCn1cc2c3c(cccc31)[C@H](CC(C)C)N[C@H](C(=O)N1CCOCC1)C2 | inconclusive: 10% |
| Nc1ccc(C(=O)N2CC[C@@H](c3ccc4c(c3)OCO4)[C@H](O)C2)cn1 | inactive |

| SMILES | inhibition |
| --- | --- |
| CSc1nc(C2CC2)cc(-c2ccccc2)c1C#N | inconclusive: 12% |
| Cc1cc(-n2ncc(C#N)c2N)nc2ccccc12 | inconclusive: 20% |
| O=C1NCC(=O)N2CCN(C(=O)CCc3cccnc3)CC12 (stereo unspecified) | inactive |
| COC(=O)[C@H]1C[C@@H](O)CCN1C(=O)c1cc(C(C)C)oc1C | inconclusive: 13% |
| COc1ccc(NC(=O)c2cc3c(=O)n4ccccc4nc3n2C)cc1OC | inconclusive: 12% |
| CCC(C)Nc1ncnc2c1cnn2-c1ccc(Cl)cc1 (stereo unspecified) | inconclusive: 10% |
| CCCc1cn(C2CCN(C3CCN(Cc4ccccc4)CC3)CC2)nn1 | inactive |
| O=C(CSc1nc2ccccc2o1)c1ccccc1 | inactive |
| Cc1cccc(C)c1OCC(=O)Nc1ccc([N+](=O)[O-])cc1 | inactive |
| CC(=O)c1ccc(C(=O)Nc2sc3c(c2-c2nc4ccccc4s2)CCN(C)C3)cc1 | inconclusive: 13% |
| CC1(C(=O)N2CCC(Cn3cc(CN4CC[C@H](O)C4)nn3)CC2)CCCCC1 | inactive |
| O=C1C(Nc2cccc(C(F)(F)F)c2)=C(N2CCCCC2)C(=O)c2ccccc21 | inconclusive: 22% |
| COc1cc(C2=N/C(=C\C=C\c3ccccc3)C(=O)O2)cc(OC)c1OC | active: 30% |
| C=CCOc1nc2c(c(=O)n(C)c(=O)n2C)n1Cc1cccc(Cl)c1 | inconclusive: 16% |
| Cc1ccc(Nc2cc(C)nc(N3CCN(S(=O)(=O)c4cc(C)ccc4C)CC3)n2)cc1 | inconclusive: 16% |
| COc1cccc(-c2cc(C(=O)Nc3sc4c(c3C#N)CCCC4)no2)c1 | inconclusive: 12% |
| CC1CCCC(NC(=O)C2CCC(CNS(=O)(=O)c3cccc4nsnc34)CC2)C1C (stereo unspecified) | inactive |
| N#Cc1nc(COc2ccccc2)oc1NCc1cccnc1 | inconclusive: 21% |
| CN1CCc2c(sc(NC(=O)CS(=O)(=O)c3ccccc3)c2-c2nc3ccccc3s2)C1 | inactive |
| Cc1cc([N+](=O)[O-])nn1CCCC(=O)Nc1ccc(C#N)cc1 | inactive |
| Cc1cccc2c(CN3CCc4[nH]cnc4C3c3ccsc3)c[nH]c12 (stereo unspecified) | inconclusive: 10% |
| CCCOc1ccc(/C=C2\SC(N3CCOCC3)=NC2=O)cc1 | inconclusive: 15% |
| Cc1cccnc1CN1CCN(Cc2ccc3nsnc3c2)CC1 | inconclusive: 13% |
| O=C(COc1ccc(/C=C2/NC(=O)NC2=O)cc1)Nc1ccccc1 | inconclusive: 23% |

| SMILES | inhibition |
| --- | --- |
| Fc1cccc(Cl)c1-c1nccn1CCc1ccncc1 | inconclusive: 17% |
| CC(C)(O)C1OC1C1=CC(=O)C2(C)OC2C1O (stereo unspecified) | inconclusive: 16% |
| Nc1nonc1-c1noc(COc2ccc(I)cc2)n1 | inactive |
| COc1ccc(CN[C@H]2[C@H](O)[C@@H](N3CCN(C(C)=O)CC3)[C@@H]3OC[C@H]2O3)cc1 | inactive |
| O=C(CCC1CCCN(C(=O)CC2=CCCCC2)C1)Nc1ccc(C(F)(F)F)cc1 (stereo unspecified) | inconclusive: 15% |
| O=C(CSc1nc2c(c(=O)n1-c1ccc(F)cc1)SCC2)N1CCc2ccccc21 | inconclusive: 10% |
| O=C(CSc1c2c(nc3ccccc13)CCC2)N1CCN(c2ccccc2F)CC1 | inconclusive: 14% |
| COc1cccc(N2CCN(C/C=C/c3ccccc3[N+](=O)[O-])CC2)c1 | inconclusive: 23% |
| N#CC1=C(N)N(c2ccccc2[N+](=O)[O-])C2=C(C(=O)CCC2)C1c1ccc(F)cc1 (stereo unspecified) | inconclusive: 23% |
| CNC(=O)[C@@H]1C[C@@H](N)CN1Cc1cc2ccc(C)cc2nc1N1CCOCC1 | inactive |
| Brc1ccc(CN2CCN(c3ccccn3)CC2)o1 | inconclusive: 16% |
| Clc1ccc(CSc2c[nH]c3ccccc23)cc1 | inconclusive: 12% |
| COc1ccc(C2C(C(=O)NCc3ccc(F)cc3)c3cc(OC)c(OC)cc3C(=O)N2C)cc1 (stereo unspecified) | inconclusive: 13% |
| Cc1cccc(NC(=O)CN2CCCN(Cc3cccc(F)c3)S2(=O)=O)c1 | inactive |
| CCCCc1ccc(N=Cc2nc(-c3ccc(Br)cc3)oc2O)cc1 | inactive |
| O=C(CC1CCS(=O)(=O)C1)NCc1cnn2ccccc12 (stereo unspecified) | inconclusive: 12% |
| COc1ccc(/C=C2\c3cc([N+](=O)[O-])ccc3-c3c2cc([N+](=O)[O-])cc3[N+](=O)[O-])cc1OC | inconclusive: 16% |
| CN(C)CCN(C)Cc1ccc(F)cc1 | inactive |
| C=C1CCC2C(C)(C(=O)O)CCCC2(C)C1CC/C(C)=C\CO (stereo unspecified) | inactive |
| Clc1ccccc1C=Nc1ccc2c(c1)OCCO2 | inconclusive: 22% |
| Cc1c(Cl)c([N+](=O)[O-])nn1CCCC(=O)Nc1sc2c(c1C(N)=O)CCCC2 | inconclusive: 10% |
| COC(=O)C1C(=O)C2=C(CC1C)NC(C)=C(C(=O)OC(C)C)C2c1ccc(OC)c(OC)c1 (stereo unspecified) | inactive |
| COc1ccc(F)cc1C(=O)C1CCCN(Cc2cccn2-c2cccnc2)C1 (stereo unspecified) | inconclusive: 27% |
| CCN(C(=O)c1sc(C)nc1-c1ccccc1)[C@H]1COC[C@@H]1O | inactive |

A second format for some results above.
SMILES | inhibition
O=C(CSc1nc2c(c(=O)n1-c1ccc(F)cc1)SCC2)N1CCc2ccccc21 | inconclusive: 10%
O=C(CSc1c2c(nc3ccccc13)CCC2)N1CCN(c2ccccc2F)CC1 | inconclusive: 14%
COc1cccc(N2CCN(C/C=C/c3ccccc3[N+](=O)[O-])CC2)c1 | inconclusive: 23%
N#CC1=C(N)N(c2ccccc2[N+](=O)[O-])C2=C(C(=O)CCC2)C1c1ccc(F)cc1 (stereo unspecified) | inconclusive: 23%
CNC(=O)[C@@H]1C[C@@H](N)CN1Cc1cc2ccc(C)cc2nc1N1CCOCC1 | inactive

Continued:

| SMILES | inhibition |
| --- | --- |
| O=C(CCn1cccn1)NC1CCCN(CCc2ccccc2)C1 (stereo unspecified) | inconclusive: 10% |
| COc1ccc(C2C(=C(O)c3ccc(Cl)cc3)C(=O)C(=O)N2C)cc1 (stereo unspecified) | inconclusive: 14% |
| CN(CCc1ccccc1)[C@@H]1[C@H](O)[C@H](CO)O[C@@H]1CNC(=O)Nc1cccc(Cl)c1 | inactive |
| Cc1cc(C)n(C)c(=O)c1C(=O)N(Cc1ccccn1)CC1CCCO1 (stereo unspecified) | inconclusive: 12% |
| COc1cccc2c1OCCCN(C(=O)c1cc(C3CC3)[nH]n1)C2 | inactive |
| CC(=O)OCC1=C(C(=O)O)N2C(=O)[C@@H](NC(=O)CSc3ccncc3)[C@H]2SC1 | inconclusive: 13% |
| Cc1ccc(Nc2nc(N)nc(CSc3nc4ccccc4[nH]3)n2)cc1 | inconclusive: 11% |
| CC(C(=O)N(C)Cc1cn[nH]c1-c1ccc(F)cc1)N1CCCC1=O (stereo unspecified) | inactive |
| C=CCNc1nc(N)c(C(=O)c2ccc(Cl)s2)s1 | inconclusive: 10% |
| O=C(Nc1ccccc1F)C1[C@H](C(=O)O)[C@H]2C=C[C@@H]1C21CC1 (stereo partly specified) | inactive |
| O=c1cc(C(F)(F)C(F)F)[nH]n1-c1ccccc1 | inconclusive: 15% |
| NC12C[C@H]3C[C@@H](C1)CC(O)(C3)C2 | inactive |
| CCc1cn[nH]c1C1CCN(C(=O)c2cccc3c2NCCC3)CC1 | inconclusive: 19% |
| O=c1c2cnn(-c3ccc(Cl)cc3)c2ncn1Cc1ccccc1Cl | inconclusive: 18% |
| c1ccc(COC2CCCN(Cc3ccncc3)C2)nc1 (stereo unspecified) | inconclusive: 15% |
| CCCCNC(=O)c1cc2c(=O)oc3ccccc3c2s1 | inconclusive: 15% |
| Cn1cc(C(c2ccc([N+](=O)[O-])o2)c2cn(C)c3ccccc23)c2ccccc21 | active: 41% |
| O=C1NC(=O)/C(=C\c2ccc(OCc3ccc(Br)cc3)c(Br)c2)N1 | inactive |
| NC(=O)c1cc(NC(=O)c2cccs2)ccc1N1CCOCC1 | inconclusive: 20% |
| C[C@H]1[C@@H]2[C@@H](O)C([C@H](C)C(=O)N(C)CCC#N)CC[C@@]2(C)CC[C@@H]1NC(=O)c1ccncc1 (stereo partly specified) | inconclusive: 11% |
| Cn1c(NCc2ccccc2Cl)nc2c1c(=O)n(Cc1cccc(Cl)c1)c(=O)n2C | inconclusive: 15% |
| CCOc1ccc(NC(=O)c2ccc(Cl)cc2)cc1 | inactive |
| O=C(Nc1ccc2c(c1)OCO2)c1ccc(Br)o1 | inconclusive: 22% |
| CCCCSc1nnc2c(n1)[nH]c1ccc(C)cc12 | inconclusive: 18% |
